From patent publication US20180214542A1
Changes are numbered by the printed parent chain. Names and notes keep the numbering of the source. These are yes or no findings as the source states them, for the method shown. Some entries that bind do so weakly or less than the wild type.

Sequences of proteins named here, by UniProt entry; tags and fusion partners are left off.
UniProt P49682: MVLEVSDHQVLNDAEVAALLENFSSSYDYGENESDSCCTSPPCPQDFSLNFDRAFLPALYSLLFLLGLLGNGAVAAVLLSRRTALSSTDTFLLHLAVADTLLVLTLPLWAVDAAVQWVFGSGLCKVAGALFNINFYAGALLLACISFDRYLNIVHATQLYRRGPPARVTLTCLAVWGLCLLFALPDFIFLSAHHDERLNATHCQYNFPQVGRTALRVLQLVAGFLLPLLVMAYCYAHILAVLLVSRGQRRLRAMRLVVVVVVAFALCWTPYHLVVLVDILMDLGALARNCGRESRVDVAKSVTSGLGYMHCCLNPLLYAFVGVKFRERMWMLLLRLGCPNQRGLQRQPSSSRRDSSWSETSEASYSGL

B1: 53Hu37 variant VH T56K/N105W / VL S92R (antibody, V domains shown)
VH: EVQLLESGGGLVQPGGSLRLSCAASGFTFTSYAMSWVRQAPGKGLEWVATISHGGKYTYYPDSVKGRFTISRDNAKNTLYLQMNSLRAEDTAVYYCARHPIYSGWYQGYFDYWGQGTLVTVSS
VL: DIQLTQSPSFLSASVGDRVTITCRASSGVNYLYWYQQKPGKAPKLWIYFTSTLASGVPSRFSGSGSGNEYTLTISSLQPEDFATYYCQQFTRSPYTFGQGTKLEIK
B2: 53Hu37 variant VH Y102H / VL S92R (antibody, V domains shown)
VH: B1 VH with K56T, Y102H, W105N
VL: B1 VL
B3: 53Hu37 variant VH N105F / VL N30R/S92R (antibody, V domains shown)
VH: B1 VH with K56T, W105F
VL: B1 VL with N30R
B4: 53Hu37 variant VH H53R/N105Q / VL 53Hu37 (antibody, V domains shown)
VH: B1 VH with H53R, K56T, W105Q
VL: B1 VL with R92S
B5: 53Hu37 variant VH T56R/N105F / VL S92R (antibody, V domains shown)
VH: B1 VH with K56R, W105F
VL: B1 VL
B6: 53Hu37 variant VH G54K/N105F / VL 53Hu37 (antibody, V domains shown)
VH: B1 VH with G54K, K56T, W105F
VL: B1 VL with R92S
B7: 53Hu37 variant VH G54K/T56K/N105F / VL S92R (antibody, V domains shown)
VH: B1 VH with G54K, W105F
VL: B1 VL
B8: 53Hu37 variant VH T56R/N105F / VL N30R/S92R (antibody, V domains shown)
VH: B1 VH with K56R, W105F
VL: B1 VL with N30R
B9: 53Hu37 variant VH G54R/N105F / VL N30R/S92R (antibody, V domains shown)
VH: B1 VH with G54R, K56T, W105F
VL: B1 VL with N30R
B10: 53Hu37 variant VH G54R/N105F / VL 53Hu37 (antibody, V domains shown)
VH: B1 VH with G54R, K56T, W105F
VL: B1 VL with R92S
B11: 53Hu37 variant VH G54R/T56R/N105F / VL N30R/S92R (antibody, V domains shown)
VH: B1 VH with G54R, K56R, W105F
VL: B1 VL with N30R
B12: 53Hu37 variant VH T56R/N105F / VL 53Hu37 (antibody, V domains shown)
VH: B1 VH with K56R, W105F
VL: B1 VL with R92S
B13: 53Hu37 variant VH G54R/T56R/N105F / VL T91R (antibody, V domains shown)
VH: B1 VH with G54R, K56R, W105F
VL: B1 VL with T91R, R92S
B14: 53Hu37 variant VH G54R/T56R/N105F / VL 53Hu37 (antibody, V domains shown)
VH: B1 VH with G54R, K56R, W105F
VL: B1 VL with R92S
B15: 53Hu37 variant VH G54K/T56K/N105F / VL 53Hu37 (antibody, V domains shown)
VH: B1 VH with G54K, W105F
VL: B1 VL with R92S
B16: 53Hu37 variant VH G54R/N105W / VL 53Hu37 (antibody, V domains shown)
VH: B1 VH with G54R, K56T
VL: B1 VL with R92S

target: recombinant human CXCR3 (human) (UniProt P49682); assay: Biacore, binding avidity to recombinant human CXCR3

binding | Binder
binds | B1
binds | B2
binds | B3
binds | B4
binds | B5
binds | B6
binds | B7
binds | B8
binds | B9
binds | B10
binds | B11
binds | B12
binds | B13
binds | B14
binds | B15
binds | B16
